Laboratory results reported in patent US20200148765A1.
Results are given in words; binding and its absence hold for the method and conditions named. Some binding calls cover weakened binding; strength is not graded here.

The chains behind the UniProt entries cited, without tags or fusion partners. Where a name states a change or a piece, a line headed by the entry shows the natural chain unless it says otherwise.
UniProt O00501: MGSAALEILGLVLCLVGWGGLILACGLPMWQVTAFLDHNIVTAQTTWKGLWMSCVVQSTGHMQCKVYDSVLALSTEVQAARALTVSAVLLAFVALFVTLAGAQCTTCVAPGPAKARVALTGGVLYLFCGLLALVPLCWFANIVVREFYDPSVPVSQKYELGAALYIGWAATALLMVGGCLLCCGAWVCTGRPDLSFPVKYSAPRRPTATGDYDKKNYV
UniProt O54942: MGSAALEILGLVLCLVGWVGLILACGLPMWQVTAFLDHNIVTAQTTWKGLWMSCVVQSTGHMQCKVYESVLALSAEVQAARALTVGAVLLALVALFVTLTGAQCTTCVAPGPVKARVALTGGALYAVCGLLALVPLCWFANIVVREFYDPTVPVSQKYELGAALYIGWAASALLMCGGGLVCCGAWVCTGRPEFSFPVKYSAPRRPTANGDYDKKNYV

How the values were obtained:
[1] = target: wild-type human CLDN-5 protein (human) (UniProt O00501); experiment: FACS, hybridoma supernatant on CLDN-expressing cells
[2] = target: mouse CLDN-5 protein (mouse) (UniProt O54942); experiment: as above
[3] = target: wild-type human CLDN-5 protein (human) (UniProt O00501); experiment: FACS on CLDN-5-expressing cells, antibody 5 µg/mL
[4] = target: crab-eating macaque CLDN-5 protein (crab-eating macaque); experiment: FACS on CLDN-5-expressing cells, antibody 5 µg/mL

Row | binding [1] | binding [2] | binding [3] | binding [4] | Binder
1 | binds | binds | binds | binds | mouse anti-CLDN-5 antibody M48 (antibody, mouse IgG3, V domains shown) VH: QAYLQQSGAELVRPGASVKMSCKASGYTFTSYNMHWVKKTRRQGLEWIGAISPGNGNTSYNQKFKGKATLTVDKSSSTAYMQLSSLTSEDSAVYFCARDDGYYGALDYWGQGTSVTVSS VL: DIVLTQSPATLSVTPGESVSLSCRASQGISTSIHWYQQKSNESPRLLIRYASQSISRIPSRFSGSGSGTDFTLTINGVESEDLSVYYCQQSYNLPLTFGSGTKLEI
2 | binds | – | binds | binds | rat anti-CLDN-5 antibody R2 (antibody, rat IgG2a, V domains shown) VH: QVQLKESGPGLVQPSQTLSLTCTVSGLSLIRNSVSWIRQPPGKGLEWMGVIWSNGGTEYNSTVKSRLSISRDTSKNQVFLKMNSLQTEDSAMFFCARTPDGYYPYFDYWGQGVMVTVSS VL: DIVLTQSPATLSVTPGESVSLSCRASQGISTSIHWYQQKSNESPRLLIRYASQSISRIPSRFSGSGSGTDFTLTINGVESEDLSVYYCQQSYNLPLTFGSGTKLEI
